Laboratory results reported in PMC7503597 (International Journal of Molecular Sciences, 2020).

The chains behind the UniProt entries cited, without tags or fusion partners. Where a name states a change or a piece, a line headed by the entry shows the natural chain unless it says otherwise.
UniProt P35462, whole entry: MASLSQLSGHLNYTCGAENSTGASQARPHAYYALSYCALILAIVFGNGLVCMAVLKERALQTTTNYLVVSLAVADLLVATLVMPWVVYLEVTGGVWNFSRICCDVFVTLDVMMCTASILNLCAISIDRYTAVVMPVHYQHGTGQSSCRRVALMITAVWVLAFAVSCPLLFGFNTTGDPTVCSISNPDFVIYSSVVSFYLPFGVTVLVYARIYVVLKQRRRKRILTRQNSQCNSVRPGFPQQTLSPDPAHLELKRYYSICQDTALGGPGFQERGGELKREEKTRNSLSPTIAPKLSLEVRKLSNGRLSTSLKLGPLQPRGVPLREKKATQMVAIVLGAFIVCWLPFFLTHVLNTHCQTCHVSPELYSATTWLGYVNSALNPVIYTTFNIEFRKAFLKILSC

Target: T1, wild-type D3R (hD3R) (Homo sapiens, UniProt P35462)
T1 construct: gene DRD3; full-length with N-terminal murine 5-HT3A signal peptide and FLAG tag, called wild-type
Test: biochemical
Format: binding

## O=c1[nH]c2ccccc2n1CCCN1CCC(n2c(=O)[nH]c3cc(Cl)ccc32)CC1 [domperidone]
  Ki: 1.1 nM
